“And” between values parts separate entries of the source, which are not always exact repeats. Equal entries are not always repeated. Structures can show the parent of a compound that is named as a salt. ± gives the standard deviation of the averaged measurements. The list shows a part of the results. Part of the spread comes from offsets between plates or batches.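 Culture-activated primary human stellate myofibroblasts, where regained lipid droplets signal inactivation. Value: share of Hoechst-counted cells above a per-plate Bodipy cutoff, in duplicate wells, with DMSO negative and nortriptyline positive controls on each plate. Hits: a control-normalized score above the plate's top-tenth-percentile nortriptyline wells, or one of a plate's three best wells. Final well concentrations are not given.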
Tested on: primary human hepatic stellate cells (donor 1)
Assay: percent Bodipy-positive cells; higher = more lipid droplet accumulation
Settings: 48 h
[1] = library stock concentration: 3.33 mM
[2] = library stock concentration: 10 mM
[3] = library stock concentration: 1 mM
[4] = library stock concentration: 400 uM
[5] = library stock concentration: 2 mM
[6] = library stock concentration: 80 uM
[7] = library stock concentration: 10.6 mM
[8] = library stock concentration: 6.3 mM

CCOc1ccc(-c2nc3ccc(-c4nc5ccc(N6CCN(C)CC6)cc5[nH]4)cc3[nH]2)cc1
percent Bodipy-positive cells (library stock concentration: 8.9 mM): 94.6 ± 7.6%

CCc1c(C(=O)NCCc2ccc(N3CCCCC3)cc2)[nH]c2ccc(Cl)cc12
percent Bodipy-positive cells [1]: 8.99 ± 0.1% | percent Bodipy-positive cells [2]: 83.2 ± 7.2%

CCCCC[C@H](O)/C=C/[C@@H]1[C@H](CCCCCCC(=O)O)[C@H](O)C[C@H]1O [8-iso Prostaglandin F1.beta.]
percent Bodipy-positive cells [3]: 16.3 ± 0.37%

CC/C=C/C/C=C/C/C=C/C/C=C/CCCCC(=O)OC [Stearidonic Acid methyl ester]
percent Bodipy-positive cells [3]: 16.8 ± 4.8%

O=C(Nc1cccc(Cl)c1)Nc1ncc(CCNc2ncnc3ccsc23)s1
percent Bodipy-positive cells [4]: 11.6 ± 1.9% | percent Bodipy-positive cells [5]: 20 ± 0.95% | percent Bodipy-positive cells [2]: 29.4 ± 3.3%

O=C(Nc1cccc(Cl)c1)Nc1ncc(CCNc2ncnc3ccsc23)s1 [SNS-314 Mesylate]
percent Bodipy-positive cells [1]: 20.4 ± 1.6% | percent Bodipy-positive cells [2]: 36.05 ± 0.2%

CCN1CCN(Cc2ccc(Nc3ncc4c(n3)N(C)c3ccccc3C(=O)N4C)cc2C(F)(F)F)CC1
percent Bodipy-positive cells [6]: 19.1 ± 3.6% | percent Bodipy-positive cells [4]: 26.5 ± 2.1% | percent Bodipy-positive cells [5]: 37.5 ± 4.9% | percent Bodipy-positive cells [2]: 98.3 ± 0.99%

Nc1ncnc2c1c(-c1cccc(OCc3ccccc3)c1)cn2C1CC(CN2CCCC2)C1 (centres undefined)
percent Bodipy-positive cells [2]: 96.8 ± 4.5%

CCCCC/C=C\C/C=C\C/C=C\CCCC/C=C\CCC(=O)O [cis-4,10,13,16-Docosatetraenoic Acid]
percent Bodipy-positive cells [3]: 22.4 ± 20%

CNC(=O)CN1CCC(Oc2cc3c(Nc4cccc(Cl)c4F)ncnc3cc2OC)CC1 [AZD8931 (Sapitinib)]
percent Bodipy-positive cells [1]: 40.2 ± 11% | percent Bodipy-positive cells [2]: 69.2 ± 3.5%

CCCCC[C@H](O)/C=C/[C@H]1C=CC(=O)[C@H]1C/C=C\CCCC(=O)O [8-iso Prostaglandin A2]
percent Bodipy-positive cells [3]: 15.7 ± 3.7%

CCN1CCCC1CNC(=O)c1cc(S(=O)(=O)CC)c(N)cc1OC (centres undefined) [Amisulpride]
percent Bodipy-positive cells [1]: 25.3 ± 6.1%

Nc1nc(N)nc(-c2cc(Cl)ccc2Cl)n1
percent Bodipy-positive cells [2]: 12.5 ± 1.3%

Nc1nc(N)nc(-c2cc(Cl)ccc2Cl)n1 [Irsogladine maleate]
percent Bodipy-positive cells (library stock concentration: 7.8 mM): 11 ± 0.26% | percent Bodipy-positive cells [2]: 10.8 ± 2.6%

Nc1nc(N)nc(-c2cc(Cl)ccc2Cl)n1 [Irsogladine]
percent Bodipy-positive cells [1]: 11.2 ± 2.5% | percent Bodipy-positive cells [2]: 10.6 ± 2.2%

CCCS(=O)(=O)Nc1ccc(F)c(C(=O)c2c[nH]c3ncc(Cl)cc23)c1F
percent Bodipy-positive cells [6]: 9.41 ± 4.6% | percent Bodipy-positive cells [4]: 9.61% and 16.7% | percent Bodipy-positive cells [5]: 10.9% and 10.3% | percent Bodipy-positive cells [1]: 6.65 ± 3% | percent Bodipy-positive cells [2]: 17.9% and 12.6%

CCCCCCCCCCCCCCCC(O)C(N)CO (racemic) [DL-Dihydrosphingosine]
percent Bodipy-positive cells [3]: 6.57 ± 6.9%

S=P(N1CC1)(N1CC1)N1CC1 [Thiotepa]
percent Bodipy-positive cells [2]: 27 ± 4.5% | percent Bodipy-positive cells [7]: 13.4 ± 1.1%

COc1cc(N)c(Cl)cc1C(=O)NC1CCN(Cc2ccccc2)CC1 [Clebopride maleate]
percent Bodipy-positive cells: 43.7 ± 6.8% | percent Bodipy-positive cells [2]: 48.2 ± 12%

O=C(Nc1cc(Cl)cc2c1[nH]c1cnccc12)c1cccnc1 [IKK Inhibitor X]
percent Bodipy-positive cells [1]: 17.6 ± 6.7%

CCCC[C@H](C)C[C@H](O)/C=C/[C@H]1[C@H](O)CC(=O)[C@@H]1CCCC/C=C/C(=O)O [Limaprost]
percent Bodipy-positive cells [3]: 21.6 ± 7%

C[C@@H](O)[C@H]1C(=O)N2C(C(=O)OCOC(=O)C(C)(C)C)=C(SC3CN(C4=NCCS4)C3)[C@H](C)[C@H]12 [Tebipenem Pivoxil]
percent Bodipy-positive cells [1]: 5.81 ± 2.7% | percent Bodipy-positive cells [2]: 10.5 ± 0.31%

CCCCOc1ccc(OCCCN2CCOCC2)cc1 [Pramoxine hydrochloride]
percent Bodipy-positive cells: 27.7 ± 5.7% | percent Bodipy-positive cells (library stock concentration: 6.1 mM): 48.4 ± 4% | percent Bodipy-positive cells [2]: 58.1 ± 16%

CCCCOc1ccc(OCCCN2CCOCC2)cc1 [Pramoxine HCl]
percent Bodipy-positive cells [1]: 16.2 ± 4.1% | percent Bodipy-positive cells [2]: 67.249 ± 0.035%

CC1CCc2cc(F)cc3c(=O)c(C(=O)O)cn1c23 (centres undefined) [Flumequine]
percent Bodipy-positive cells: 25.4 ± 0.83% | percent Bodipy-positive cells [1]: 7.43 ± 1.2% | percent Bodipy-positive cells (library stock concentration: 7.7 mM): 10.4 ± 2% | percent Bodipy-positive cells [2]: 24.3% and 25%

O=C(NCC1CCCCN1)c1cc(OCC(F)(F)F)ccc1OCC(F)(F)F (centres undefined) [Flecainide acetate]
percent Bodipy-positive cells: 15.5 ± 3.7% | percent Bodipy-positive cells [2]: 30.2 ± 4.6% | percent Bodipy-positive cells [7]: 46.5 ± 1.7%

O=C(NCC1CCCCN1)c1cc(OCC(F)(F)F)ccc1OCC(F)(F)F (centres undefined) [Flecainide]
percent Bodipy-positive cells (library stock concentration: 4.8 mM): 16.7 ± 4.7%

COc1cc(N2CCC(N3CCN(C)CC3)CC2)ccc1Nc1ncc(Cl)c(Nc2ccccc2S(=O)(=O)C(C)C)n1
percent Bodipy-positive cells [6]: 8.5 ± 1.5% | percent Bodipy-positive cells [4]: 23.7 ± 3.5% | percent Bodipy-positive cells [5]: 63.55 ± 0.17% | percent Bodipy-positive cells [2]: 73.042 ± 0.027%

CC1(C)S[C@@H]2[C@H](/N=C/N3CCCCCC3)C(=O)N2[C@H]1C(=O)O
percent Bodipy-positive cells [2]: 7.91 ± 3.6%

CC(C)c1nc(CN(C)C(=O)N[C@H](C(=O)N[C@@H](Cc2ccccc2)C[C@H](O)[C@H](Cc2ccccc2)NC(=O)OCc2cncs2)C(C)C)cs1
percent Bodipy-positive cells [2]: 20.6 ± 10%

CC(C)c1nc(CN(C)C(=O)N[C@H](C(=O)N[C@@H](Cc2ccccc2)C[C@H](O)[C@H](Cc2ccccc2)NC(=O)OCc2cncs2)C(C)C)cs1 [Ritonavir]
percent Bodipy-positive cells [1]: 8.04 ± 1.1% | percent Bodipy-positive cells [2]: 19.3 ± 6.4%

O=C(CCCCc1ccccc1)C(F)(F)C(F)(F)F
percent Bodipy-positive cells [3]: 8.47 ± 2%

CCCOC(=O)c1c(-c2ccccc2)nc(CC)c(C(=O)SCC)c1CCC
percent Bodipy-positive cells [2]: 63.3 ± 10%

COc1ccccc1OCCNCC(O)COc1cccc2[nH]c3ccccc3c12 (centres undefined) [Carvedilol]
percent Bodipy-positive cells [1]: 19.7 ± 7.3% | percent Bodipy-positive cells (library stock concentration: 4.9 mM): 33.4% and 49.7%

COc1ccccc1OCCNCC(O)COc1cccc2[nH]c3ccccc3c12 (centres undefined) [Carvedilol tartrate]
percent Bodipy-positive cells [2]: 53.9 ± 4.5%

Nc1cccc(-c2cc3c(Oc4cccc(O)c4)ncnc3[nH]2)c1
percent Bodipy-positive cells [6]: 18.05 ± 0.18% | percent Bodipy-positive cells [4]: 9.97 ± 2.9% | percent Bodipy-positive cells [5]: 21.5 ± 2% | percent Bodipy-positive cells [1]: 19.6 ± 3.4% | percent Bodipy-positive cells [2]: 44.1% and 31.6%

CC(C)[C@H]1CC[C@H](C(=O)N[C@H](Cc2ccccc2)C(=O)O)CC1 [nateglinide]
percent Bodipy-positive cells [8]: 7.67 ± 2.9%

CC(C)[C@H]1CC[C@H](C(=O)N[C@H](Cc2ccccc2)C(=O)O)CC1 [Nateglinide]
percent Bodipy-positive cells [1]: 12.7 ± 6.5% | percent Bodipy-positive cells [8]: 9.54 ± 2.8%

CC(C)[C@H]1CC[C@H](C(=O)N[C@H](Cc2ccccc2)C(=O)O)CC1
percent Bodipy-positive cells [2]: 9.46 ± 7.4%

COc1c(O)cc2c(c1O)[C@@H]1O[C@H](CO)[C@@H](O)[C@H](O)[C@H]1OC2=O [Bergenin monohydrate]
percent Bodipy-positive cells: 10.8 ± 0.66%

COc1c(O)cc2c(c1O)[C@@H]1O[C@H](CO)[C@@H](O)[C@H](O)[C@H]1OC2=O
percent Bodipy-positive cells [2]: 32.8 ± 10%

COc1c(O)cc2c(c1O)[C@@H]1O[C@H](CO)[C@@H](O)[C@H](O)[C@H]1OC2=O [Bergenin]
percent Bodipy-positive cells [1]: 10.2 ± 1.9% | percent Bodipy-positive cells [2]: 10.2 ± 4%

CCCCCC(=O)/C=C/C=C\C/C=C\C/C=C\CCCC(=O)O [15-Ketoicosatetraenoic acid]
percent Bodipy-positive cells (library stock concentration: 100 uM): 11 ± 6.8%

COc1ccc(CCCOC(Cn2ccnc2)c2ccc(OC)cc2)cc1 (centres undefined)
percent Bodipy-positive cells [3]: 11.2 ± 0.76% | percent Bodipy-positive cells (library stock concentration: 13.6 mM): 57.9 ± 3.8%

COc1ccc(-n2nc(C(N)=O)c3c2C(=O)N(c2ccc(N4CCCCC4=O)cc2)CC3)cc1 [Apixaban]
percent Bodipy-positive cells [1]: 11.9 ± 2.1% | percent Bodipy-positive cells [2]: 16 ± 2.7%

CN1CCN(C2=Nc3cc(Cl)ccc3Nc3ccccc32)CC1 [Clozapine]
percent Bodipy-positive cells: 83.5 ± 4.7%

— the supplement of paper PMC9135407
